Test results: article PMC9239096

Key:
Assay in all cases: two-hybrid; Matchmaker GAL4 two-hybrid system 3, AD (pGADT7) and BD (pGBKT7) plasmids co-introduced into S. cerevisiae AH109; growth on medium lacking Trp/Leu/His and blue colour indicate interaction
[1] = target: PtsN3 of Sinorhizobium fredii CCBAU45436, yeast two-hybrid fusion (Sinorhizobium fredii CCBAU45436)
[2] = target: PtsN2 of Sinorhizobium fredii CCBAU45436, yeast two-hybrid fusion (Sinorhizobium fredii CCBAU45436)
[3] = target: PtsN1(H66E), yeast two-hybrid fusion (Sinorhizobium fredii CCBAU45436)
[4] = target: PtsN1 (EIIA^Ntr) of Sinorhizobium fredii CCBAU45436, yeast two-hybrid fusion (Sinorhizobium fredii CCBAU45436)
[5] = target: PtsN1(H66A), yeast two-hybrid fusion (Sinorhizobium fredii CCBAU45436)

B1: KdpD sensory kinase of Sinorhizobium fredii CCBAU45436, yeast two-hybrid fusion (protein, UniProt C3KRJ3 1-901)
chain: MPGDRPDVDTRPSPDALLENAEREARGRLKIFLGAAPGVGKTYEMLVSGRARKSEGVDVVIGIVETHGRQETQALVDGLEAIARRNVEYRGHVLDEMDLDAILARRPQLVLVDELAHTNVEGSRHSKRYLDVEEILAKGIDVYSTLNVQHIESLNDIVAQITRIRVRETVPDSIIDRADDVEIIDLTPDDLIKRLHEGKVYLPTTAKRAIANYFSPGNLTALRELALRRTAERVDDQLVSHMQAHAIPGPWAAGDRVLVCIDHGSRGAALVRYAKRQADRLRAPWSAIHVETTGSINLPDADKDRLASHLRLAEQLGGEAITIPGQSVARDILRHAAAHNFTHVVTGKPNKPRWRELIEGSVSHDLIRHAGEISVHVVSGAARAASAARGVKTAPPPKQVKLQAYLLSTLYVSIALAFSALLDQVLDVRNLALVLLIGVLTSAVTAGLGPALYACFVSALAFNFFFLEPRYTFTIRDPESVLALVFFLVVAVTASNLTARVQRQAAAARQRARTTEDLYLFAKKLASTGTLDDVLWATAHQIASMLKVRVVILLPESGSIAVKAGYPPDDTLVDADIAAARWAWENDRPAGRGADTLPGAKRLYLPLRTGRAAIGVVGLDNDRQGPLLTPEQQRLFDALADQAALAIERVQLVADVDRARLAAEADRLRSALLTSISHDLKTPLAAIMGSAGTLRDYSGAMPEEDRTDLLSTVVDESERLNRFIANLLDMTRIESGATEPNASLHDVGDVVGTALRRAAKMLARHKTAIDAPGDLPMLKLDPVLFEQVLFNLLDNAAKYAPPGSTVRIRAWVDDNSVALQVMDEGPGIPSGDLERVFDSFYRVRKGDHVRAGTGLGLSICRGFIEAMGGTIAAGNRTDRSGAVFTITMPIPVGAPNVEDLT
binding [1]: no binding | binding [2]: binds | binding [3]: no binding | binding [4]: binds | binding [5]: binds

These are yes or no findings as the source states them, for the method shown. For some assays here: Binding can be weak; no strength is given. Where a sequence is shown, tags or fusion partners need not be part of it.
